Experimental data published in PubChem BioAssay (NCATS).
This list was built around the results that the source calls inconclusive (neither active nor inactive); the mix of calls is not that of the screen. For part of these data: A potency beside an inconclusive call is a rough fit, not a confirmed value. Calls of active or inactive are those of the source. The call rests on the fitted dose curve; in most records, active means well fitted curve in the direction sought with a large enough effect; inconclusive means small, poorly fitted or top-dose-only effect, or another doubt; inactive means no such curve, though single readings can be large; an effect the other way counts as inactive or inconclusive.

Legend:
[1] = Quantitative High-Throughput drug screen in 47 multiple myeloma cell lines against the NCATS MIPE library collection: JIM3_ECACC cell viability assay (AID 1918963; further: nearly all actives have a fitted effect of over 35% in size; further: potency means the concentration at half of the fitted maximal effect); conditions: JIM3 myeloma viability, CellTiter-Glo ATP, 48 h; viability, percent of control: at 45.8 µM (top of the series)
Procedure, shortened: (§1)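 Luminescent ATP measurement with CellTiter-Glo gives viability, scaled between DMSO-only wells (100%) and media-only wells (0%). Cells, 500 per well, faced library compounds for 48 hours at 37C.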

[2] = Quantitative High-Throughput drug screen in 47 multiple myeloma cell lines against the NCATS MIPE library collection: JIM1_ECACC cell viability assay (AID 1918964; further: potency means the concentration at half of the fitted maximal effect); conditions: JIM1 myeloma viability, CellTiter-Glo ATP luminescence, 48 h; viability (% of DMSO): at 45.8 µM (top of the series)
Procedure, shortened: (§2)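 Steps: seed 500 cells per well; pin-transfer MIPE 4.0 library; incubate 48 h at 37C, 5% CO2, humidified; add CellTiter-Glo, 5 min room temperature; read luminescence.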

[3] = Quantitative High-Throughput drug screen in 47 multiple myeloma cell lines against the NCATS MIPE library collection: JJN3_DSMZ cell viability assay (AID 1918966; further: nearly all actives have a fitted effect of over 50% in size; further: potency means the concentration at half of the fitted maximal effect)
Procedure, shortened: as §2

[4] = Quantitative High-Throughput drug screen in 47 multiple myeloma cell lines against the NCATS MIPE library collection: KMS12BM_JCRB cell viability assay (AID 1918971); further: nearly all actives have a fitted effect of over 35% in size; further: potency means the concentration at half of the fitted maximal effect
Procedure, shortened: (§3)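 We plated 500 myeloma cells per well, pinned in MIPE 4.0 compounds, and incubated for 48 hours at 37C. ATP was then quantified with CellTiter-Glo, with DMSO and media-only wells defining 100% and 0%.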

[5] = Quantitative High-Throughput drug screen in 47 multiple myeloma cell lines against the NCATS MIPE library collection: KMS26_JCRB cell viability assay (AID 1918975); conditions: KMS26 myeloma cells viability, CellTiter-Glo ATP, 48 h; viability (% of DMSO): at 45.8 µM (top of the series); further: nearly all actives have a fitted effect of over 45% in size; further: potency means the concentration at half of the fitted maximal effect
Procedure, shortened: as §3

[6] = Quantitative High-Throughput drug screen in 47 multiple myeloma cell lines against the NCATS MIPE library collection: MMM1_PLB cell viability assay (AID 1918976); further: nearly all actives have a fitted effect of over 35% in size; further: potency means the concentration at half of the fitted maximal effect
Procedure, shortened: (§4)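 Inhibition of viability over 48 h was scored by ATP content (CellTiter-Glo) in 500-cell wells. Zero and full viability were defined by media-only and DMSO-only wells.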

[7] = Quantitative High-Throughput drug screen in 47 multiple myeloma cell lines against the NCATS MIPE library collection: MOLP8_DSMZ cell viability assay (AID 1918977); further: nearly all actives have a fitted effect of over 45% in size; further: potency means the concentration at half of the fitted maximal effect
Procedure, shortened: as §4

[8] = Quantitative High-Throughput drug screen in 47 multiple myeloma cell lines against the NCATS MIPE library collection: OCIMY1_PLB cell viability assay (AID 1918979); further: potency means the concentration at half of the fitted maximal effect; nearly all actives have a fitted effect of over 35% in size
Procedure, shortened: as §4

[9] = Quantitative High-Throughput drug screen in 47 multiple myeloma cell lines against the NCATS MIPE library collection: INA6_PLB cell viability assay (AID 1918965; further: nearly all actives have a fitted effect of over 55% in size); conditions: INA6 myeloma viability, CellTiter-Glo ATP luminescence, 48 h; viability (% of control): at 45.8 µM (top of the series)
Procedure, shortened: as §2

[10] = Quantitative High-Throughput drug screen in 47 multiple myeloma cell lines against the NCATS MIPE library collection: KMS27_JCRB cell viability assay (AID 1918970); conditions: KMS27 myeloma cells, CellTiter-Glo ATP viability, 48 h; viability (% of DMSO): at 45.8 µM (top of the series); further: nearly all actives have a fitted effect of over 30% in size; further: potency means the concentration at half of the fitted maximal effect
Procedure, shortened: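 CellTiter-Glo luminescence after 48 h drug exposure at 37 °C; 500 cells/well, 1536-well format, pin-tool compound addition; DMSO = 100%, media-only = 0% viability.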

[11] = Quantitative High-Throughput drug screen in 47 multiple myeloma cell lines against the NCATS MIPE library collection: KMS12PE_JCRB cell viability assay (AID 1918972); conditions: KMS12PE myeloma viability, CellTiter-Glo ATP, 48 h; viability: at 45.8 µM (top of the series); further: nearly all actives have a fitted effect of over 30% in size; further: potency means the concentration at half of the fitted maximal effect
Procedure, shortened: as §2

[12] = Quantitative High-Throughput drug screen in 47 multiple myeloma cell lines against the NCATS MIPE library collection: KMS20_JCRB cell viability assay (AID 1918973); conditions: CellTiter-Glo ATP, 48 h; viability (% of DMSO): at 45.8 µM (top of the series); further: nearly all actives have a fitted effect of over 45% in size; further: potency means the concentration at half of the fitted maximal effect
Procedure, shortened: as §2

[13] = Quantitative High-Throughput drug screen in 47 multiple myeloma cell lines against the NCATS MIPE library collection: NCIH929_DSMZ cell viability assay (AID 1918978); conditions: NCI-H929 myeloma viability, CellTiter-Glo ATP, 48 h; viability, % of control: at 45.8 µM (top of the series); further: nearly all actives have a fitted effect of over 35% in size; further: potency means the concentration at half of the fitted maximal effect
Procedure, shortened: as §4

[14] = Quantitative High-Throughput drug screen in 47 multiple myeloma cell lines against the NCATS MIPE library collection: MM1S_ATCC cell viability assay (AID 1918980); further: nearly all actives have a fitted effect of over 45% in size; further: potency means the concentration at half of the fitted maximal effect
Procedure, shortened: as §4

[15] = Quantitative High-Throughput drug screen in 47 multiple myeloma cell lines against the NCATS MIPE library collection: Karpas417_ECACC cell viability assay (AID 1918961); conditions: Karpas417 myeloma viability, CellTiter-Glo ATP luminescence, 48 h; viability (% of DMSO): at 45.8 µM (top of the series); further: potency means the concentration at half of the fitted maximal effect
Procedure, shortened: as §2

[16] = Quantitative High-Throughput drug screen in 47 multiple myeloma cell lines against the NCATS MIPE library collection: KMS21BM_JCRB cell viability assay (AID 1918974); conditions: ATP luminescence, 48 h; viability: at 45.8 µM (top of the series); further: potency means the concentration at half of the fitted maximal effect
Procedure, shortened: as §2

[17] = Quantitative High-Throughput drug screen in 47 multiple myeloma cell lines against the NCATS MIPE library collection: MM1R_ATCC cell viability assay (AID 1918981); further: nearly all actives have a fitted effect of over 35% in size; further: potency means the concentration at half of the fitted maximal effect
Procedure, shortened: as §4

[18] = Quantitative High-Throughput drug screen in 47 multiple myeloma cell lines against the NCATS MIPE library collection: KHM11_PLB cell viability assay (AID 1918962); conditions: KHM11 myeloma cell viability, CellTiter-Glo ATP luminescence, 48 h; viability, % of DMSO control: at 45.8 µM (top of the series); further: nearly all actives have a fitted effect of over 35% in size; further: potency means the concentration at half of the fitted maximal effect
Procedure, shortened: as §1

[19] = Quantitative High-Throughput drug screen in 47 multiple myeloma cell lines against the NCATS MIPE library collection: Karpas25_ECACC cell viability assay (AID 1918968; further: nearly all actives have a fitted effect of over 35% in size; further: potency means the concentration at half of the fitted maximal effect)
Procedure, shortened: as §2

Cc1ccccc1-n1c(Cn2ncc3c(N)ncnc32)nc2cccc(C)c2c1=O
inactive: Potency [3] | Potency [6]
active: Potency [1] 0.418 µM | Potency [2] 0.0662 µM | Potency [4] 7.43 µM
inconclusive: Potency [5] 7.43 µM [cytotoxic, full curve, poor fit] | Potency [7] 0.526 µM [cytotoxic, partial curve, poor fit] | Potency [8] 37.2 µM [cytotoxic, single point]

COC1=CC(C)=C[C@@H](C)[C@@H](O)[C@@H](C)CC(C)=CC=C[C@H](OC)[C@H]([C@@H](C)[C@@H](O)[C@H](C)[C@@]2(O)C[C@@H](O)[C@H](C)[C@@H](C(C)C)O2)OC1=O
active: Potency [2] 0.001 µM | Potency [12] 0.001 µM | Potency [5] 0.0033 µM | Potency [6] 10.5 µM | Potency [7] 0.0042 µM | Potency [14] 1.48 µM
inconclusive: viability (% of control) [9] 4.62% [cytotoxic] | Potency [3] 16.6 µM [cytotoxic, partial curve] | viability (% of DMSO) [10] 11% [cytotoxic] | Potency [4] 4.18 µM [cytotoxic, partial curve, poor fit] | viability [11] 12.1% [cytotoxic] | viability, % of control [13] 3.8% [cytotoxic]

C[C@@H]1[C@@H](CC(C[C@H]2O[C@@H]3O[C@]4(C)CC[C@@H]5[C@H](C)CC[C@@H]([C@H]2C)[C@@]35OO4)C[S+](=O)([O-])c2ccc(COC(=O)N(C)C)cc2)O[C@@H]2O[C@]3(C)CC[C@H]4[C@H](C)CC[C@@H]1[C@@]24OO3 (stereo not given in full)
inconclusive: Potency [16] 37.2 µM [rising, partial curve, poor fit]
active: Potency [15] 0.132 µM | Potency [2] 0.0662 µM | Potency [12] 0.264 µM | Potency [5] 0.296 µM | Potency [7] 0.187 µM | Potency [8] 0.187 µM

Cc1c(C(=O)Nc2cccc(C(F)(F)F)c2)cc(-c2ccccc2)n1CCCN1CCOCC1
active: Potency [15] 7.43 µM | Potency [2] 6.62 µM | Potency [11] 10.5 µM | Potency [16] 18.7 µM | Potency [6] 20.9 µM | Potency [7] 20.9 µM
inconclusive: Potency [13] 20.9 µM [cytotoxic, partial curve] | Potency [8] 37.2 µM [cytotoxic, single point] | Potency [17] 18.7 µM [cytotoxic, partial curve]

CC[C@@H](C(N)=O)N1CCCC1=O
inconclusive: Potency [2] 33.2 µM [cytotoxic, partial curve, poor fit] | Potency [10] 0.662 µM [cytotoxic, full curve, poor fit] | Potency [4] 1.48 µM [cytotoxic, full curve, poor fit] | Potency [16] 33.2 µM [rising, partial curve] | Potency [5] 37.2 µM [cytotoxic, single point] | Potency [6] 11.8 µM [cytotoxic, partial curve, poor fit] | Potency [13] 37.2 µM [cytotoxic, partial curve, poor fit] | Potency [14] 93.5 µM [cytotoxic, partial curve, poor fit] | Potency [17] 23.5 µM [cytotoxic, single point]
inactive: Potency [18] | Potency [1] | Potency [9] | Potency [3] | Potency [19] | Potency [12] | Potency [7]

CCC(=O)OC1CCC2C3CCC4=CC(=O)CC[C@@]4(C)C3CC[C@]12C (stereo not given in full)
inactive: Potency [18] | Potency [7] | Potency [17]
inconclusive: Potency [2] 5.26 µM [cytotoxic, partial curve, poor fit] | Potency [3] 0.003 µM [rising, full curve, poor fit] | Potency [19] 37.2 µM [cytotoxic, single point] | Potency [10] 0.0019 µM [cytotoxic, full curve, poor fit] | Potency [4] 37.2 µM [cytotoxic, single point] | Potency [12] 0.0012 µM [cytotoxic, full curve, poor fit] | Potency [6] 0.0074 µM [rising, full curve] | Potency [13] 37.2 µM [cytotoxic, single point] | Potency [14] 0.132 µM [rising, full curve]

CC(=Cc1csc(C)n1)[C@@H]1C[C@H]2O[C@@H]2CCC[C@H](C)[C@@H](O)[C@@H](C)C(=O)C(C)(C)[C@@H](O)CC(=O)O1
inactive: Potency [9] | Potency [4] | Potency [5] | Potency [14] | Potency [17]
inconclusive: Potency [18] 18.7 µM [rising, partial curve, poor fit] | viability (% of DMSO) [10] 58.5% [cytotoxic] | Potency [12] 0.0017 µM [cytotoxic, full curve, poor fit] | Potency [6] 0.0042 µM [rising, full curve, poor fit] | Potency [7] 33.2 µM [rising, single point]
active: Potency [2] 0.001 µM
